# The supplement of paper PMC8256030
# “And” between values parts separate entries of the source, which are not always exact repeats. Equal values may be shown once. The list shows a part of the results. Single values are uncertain here, since repeats match poorly.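 HEK293T cells were given each compound shortly before transfection with a reporter in which red mCherry is followed by the SARS-CoV-2 frameshift element and then GFP in the −1 frame, so GFP appears only after frameshifting.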
# System: HEK293T
# Experiment: percent viability (nuclei count) relative to control; higher = more viable cells
# Details: 10 µM; 24 h
row,SMILES,percent viability
1,CN/C(=N\c1ccc(C2=NNC(=O)CC2C)cc1)NC#N (stereo unspecified) [Siguazodan],191%
2,Cc1cc2c(s1)Nc1ccc(F)cc1N=C2N1CCN(C)CC1 [flumezapine],397%
3,NC[C@H]1O[C@H](O[C@H]2[C@H](O)[C@@H](O[C@H]3O[C@H](CO)[C@@H](O)[C@H](N)[C@H]3O)[C@H](N)C[C@@H]2N)[C@H](N)[C@@H](O)[C@@H]1O [bekanamycin],263%
4,O=P(O)(O)C(O)(Cc1cnc2ccccn12)P(=O)(O)O [minodronic acid],206%
5,C=Cc1c(C)c2cc3[nH]c(cc4nc(cc5nc(cc1[nH]2)C(C)=C5CCC(=O)O)C(CCC(=O)O)=C4C)c(C)c3C=C,71.1%
6,Cc1ccc2c(Cl)cc(Cl)c(O)c2n1 [chlorquinaldol],335%
7,CCNC(=O)[C@@H]1CCCN1C(=O)[C@H](CCCNC(=N)N)NC(=O)[C@H](CC(C)C)NC(=O)[C@@H](CC(C)C)NC(=O)[C@H](Cc1ccc(O)cc1)NC(=O)[C@H](CO)NC(=O)[C@H](Cc1c[nH]c2ccccc12)NC(=O)[C@H](Cc1c[nH]cn1)NC(=O)[C@@H]1CCC(=O)N1 [leuprorelin],163%
8,CO/N=C(\C(=O)N[C@@H]1C(=O)N2C(C(=O)O)=C(C[N+]3(C)CCCC3)CS[C@H]12)c1csc(N)n1,211%
9,NCCNCCNCCN,360%
10,CC(=O)NO [acetohydroxamic acid],211%
11,COC(=O)[C@H](c1ccccc1Cl)N1CCc2sccc2C1 [clopidogrel],191% and 212%
12,CCCN[C@H]1CCc2nc(N)sc2C1 [Pramipexole],151%
13,CN(C)CCOC(c1ccc(Cl)cc1)c1ccccn1 (stereo unspecified) [carbinoxamine],310%
14,CCCc1c(SCCCOc2ccc(C(C)=O)c(OCCCC(=O)O)c2CCC)ccc(C(C)=O)c1O [tipelukast],152%
15,COc1ccc2nc3cc(Cl)ccc3c(Nc3cc(CN4CCCC4)c(O)c(CN4CCCC4)c3)c2n1 [pyronaridine],26.2%
16,N[C@@H]1CCCCN(c2c(F)cc3c(=O)c(C(=O)O)cn(C4CC4)c3c2Cl)C1 [Besifloxacin],146%
17,CC(C)(C)NCC(O)CSc1nc(-c2ccc(C(N)=O)s2)cs1 (stereo unspecified) [arotinolol],131%
18,COc1ccc(/C=C/C(=O)Nc2ccccc2C(=O)O)cc1OC [tranilast],261%

row,SMILES,percent viability
1,O=C(O)CCCCCCCC(=O)O [azelaic acid],189%
2,CCn1cc(C(=O)O)c(=O)c2ccc(-c3ccncc3)cc21 [rosoxacin],314%
3,OC(CCCN1CCc2c(c3cc(F)ccc3n2-c2ccc(F)cc2)C1)c1ccc(F)cc1 (stereo unspecified) [flutroline],146%
4,Nc1ccc(C(=O)OCC(O)CO)cc1 (stereo unspecified) [lisadimate],141%
5,C[C@@H]1O[C@@H](OC[C@H]2O[C@@H](Oc3c(-c4ccc(OCCO)c(OCCO)c4)oc4cc(OCCO)cc(O)c4c3=O)[C@H](O)[C@@H](O)[C@@H]2O)[C@H](O)[C@H](O)[C@H]1O,33%
6,C#C[C@]1(OC(C)=O)CC[C@H]2[C@@H]3CCC4=CC(=O)CC[C@@H]4[C@H]3CC[C@@]21C,153%
7,CCOC(=O)[C@H](CCc1ccccc1)N[C@@H](C)C(=O)N1C(=O)N(C)C[C@H]1C(=O)O [imidapril],140%
8,O=C(/C=C/c1ccc(CN(CCO)CCc2c[nH]c3ccccc23)cc1)NO [dacinostat],6.4%
9,CN(C)c1cnccn1,215%
10,O=C1NC(=O)C(Cc2ccc3cc(OCc4ccccc4F)ccc3c2)S1 (stereo unspecified) [netoglitazone],160%
11,CC(=O)N[C@H]1[C@H](O[C@H]2[C@H](O)[C@@H](NC(C)=O)C(O)O[C@@H]2CO)O[C@H](CO)[C@@H](O)[C@@H]1O (stereo partly specified),221%
12,CN1CC(=O)N=C1NC(=O)Nc1cccc(Cl)c1 [fenobam],138%
13,CC(C)N(CCC(c1ccccc1)c1ccccc1)C(C)C [diisopromine],194%
14,CCc1nn(CCCN2CCN(c3cccc(Cl)c3)CC2)c(=O)n1CC [etoperidone],272%
15,O=c1cc(CN2CCOCC2)c2ccc(O)cc2o1 [oxazorone],161%
16,CCCC(CCC)C(=O)O [valproic acid],246% and 144%
17,CCC(C(=O)OCCN(CC)CC)c1ccccc1 (stereo unspecified) [butetamate],221%
18,COC(=O)[C@@H]1[C@H]2C[C@H]3c4[nH]c5ccccc5c4CCN3C[C@@H]2CC[C@@H]1O,164%

# Part of the list above in order of molecular weight, rising.
row,SMILES,percent viability
17,CCC(C(=O)OCCN(CC)CC)c1ccccc1 (stereo unspecified) [butetamate],221%
8,O=C(/C=C/c1ccc(CN(CCO)CCc2c[nH]c3ccccc23)cc1)NO [dacinostat],6.4%
5,C[C@@H]1O[C@@H](OC[C@H]2O[C@@H](Oc3c(-c4ccc(OCCO)c(OCCO)c4)oc4cc(OCCO)cc(O)c4c3=O)[C@H](O)[C@@H](O)[C@@H]2O)[C@H](O)[C@H](O)[C@H]1O,33%
